Two sequences from article PMC9174463 can be followed below.

Sequences of proteins named here, by UniProt entry; tags and fusion partners are left off.
UniProt F1RNW6, entry or part of it: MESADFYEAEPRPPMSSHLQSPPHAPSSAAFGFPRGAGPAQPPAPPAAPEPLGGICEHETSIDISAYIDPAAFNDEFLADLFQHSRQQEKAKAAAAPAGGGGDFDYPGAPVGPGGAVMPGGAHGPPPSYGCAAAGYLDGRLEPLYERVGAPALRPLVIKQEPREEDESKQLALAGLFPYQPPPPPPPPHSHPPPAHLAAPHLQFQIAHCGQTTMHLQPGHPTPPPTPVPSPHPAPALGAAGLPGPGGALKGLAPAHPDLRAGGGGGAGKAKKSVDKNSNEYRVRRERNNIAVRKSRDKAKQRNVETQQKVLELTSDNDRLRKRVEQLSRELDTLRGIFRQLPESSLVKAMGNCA

For at least one entry, the source does not settle the construct or the ends of the probe. Results from cells or extracts need not show a direct contact.

Series [1] deals with C/EBPα (Sus scrofa (IPEC-J2 cells)) (UniProt F1RNW6). Put plainly: competition with a labelled probe. The settings on record: excess unlabeled probe competes the shift; 20 mM Tris-HCl pH 7.6, 50 mM KCl, 1 mM DTT, 0.5 mM EDTA, 10% glycerol, 4 ug poly(dI-dC), 2 ug nuclear extract, 25 C 30 min; 6% native PAGE in 0.5x TBE; protein in an extract; label: none (text also says unlabeled 5'-biotinylated).

For series [2] the target is unchanged. Briefly: EMSA supershift. The conditions noted are these: anti-C/EBPα antibody; 20 mM Tris-HCl pH 7.6, 50 mM KCl, 1 mM DTT, 0.5 mM EDTA, 10% glycerol, 4 ug poly(dI-dC), 2 ug nuclear extract, 25 C 30 min; 6% native PAGE in 0.5x TBE; protein in an extract; label: 5' biotin. In general terms: Mobility shift assays separate free from complexed probe on a gel.

As to “ACCGCGCTGGCGCAGCATCT (double strand) [TFF1 WT cold competitor]”, in series [1], the binding result is on record as “binds”.

In the case of “ACCGCGCTGGCGCAGCATCT (double strand) [TFF1 WT probe]”, in series [2], the binding result is given as “binds”.
